According to US12559471B2, “1,5-dihydro-2,4-benzodiazepine-3-one derivative and application thereof” (JIANGSU NHWA PHARMACEUTICAL CO., LTD, priority 2020, dated 2026):
At least one structure is not confirmed: it was looked up by name or label, or the drawing left a doubt.

By UniProt entry, the sequences of proteins in these tests, tags left out.
UniProt P28223, whole entry: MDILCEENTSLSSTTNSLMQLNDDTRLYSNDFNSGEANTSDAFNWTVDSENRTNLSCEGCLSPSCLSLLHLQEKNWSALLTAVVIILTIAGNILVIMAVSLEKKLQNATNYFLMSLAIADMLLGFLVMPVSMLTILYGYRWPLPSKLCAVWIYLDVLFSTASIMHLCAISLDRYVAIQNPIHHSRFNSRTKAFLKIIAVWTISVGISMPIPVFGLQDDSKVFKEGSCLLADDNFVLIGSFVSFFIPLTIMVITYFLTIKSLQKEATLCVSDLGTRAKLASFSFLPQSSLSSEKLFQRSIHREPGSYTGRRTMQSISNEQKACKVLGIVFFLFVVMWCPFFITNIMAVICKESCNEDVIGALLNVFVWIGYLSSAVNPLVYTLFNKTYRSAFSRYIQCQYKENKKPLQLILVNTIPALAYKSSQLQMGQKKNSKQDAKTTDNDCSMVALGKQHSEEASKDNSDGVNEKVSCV

Molecular target: 5-HT2A receptor (Homo sapiens (Human), UniProt P28223)
Assay: Competitive 5-HT2A receptor binding assay (3H-Ketanserin, CHO-5-HT2A membrane)
Conditions: ratio of 5-HT2C Ki to 5-HT2A Ki
Description: 1) Preparation of CHO-5-HT2A Receptor Membrane
The precipitate was collected, and the supernatant was discarded. The solution B was added into the precipitate. […] The supernatant was carefully discarded, and the solution B was added into the precipitate again. […] The precipitate obtained was stored at −80° C.
1) Competitive 5-HT2A Receptor Binding Assay
Step 2: 100 μL of the membrane preparation was added into each reaction tube.
After the filtration, the filter membrane was dried at 60° C. and added into a scintillation disc attached with a bottom membrane, which was then added with 40 μL of scintillation liquid, sealed with a top membrane, and left to stand.

CC(C)COc1ccc(CN2Cc3ccc(F)cc3CN(C3CCN(C)C3)C2=O)cc1 (stereo not shown) [NH-K-A19015]
2C/2A: 0.241
